The list shows a part of the results.
Each target was assayed with CNc1nc(-c2ccc3c(N)n[nH]c3c2)cc(N2C[C@@H](C(=O)NC3CCCCC3)CC[C@H]2C)n1 (assay: log2 fold change, soluble protein after heating vs DMSO (PISA); higher = thermal stabilisation; K562 lysate, 10 uM; active = over 0.2 and 3.5 SD of the protein, either way, in both replicates (recomputed)).
In short: (§1)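 Following dounce homogenisation of K562 pellets in PBS pH 7.4 with 1 mM MgCl2, crude extract at 1 mg/mL protein was incubated for 30 min with 10 μM compound. Aliquots were then heated for 3 min over 48°C-58°C and pooled, NP-40 was added to 0.5% at 4°C, and soluble protein was recovered as the supernatant at 21,000xg for 90 min. Channel-sum-equalised TMTpro 16plex LC-MS/MS quantified this protein. Each value, from duplicates, is a log-two fold change in thermal stability relative to solvent controls.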

Chains of the proteins cited; added tags and fusions are not shown. Lines headed by an entry give the natural chain unless they say otherwise; changes in a name come on top.
UniProt Q9P0I2: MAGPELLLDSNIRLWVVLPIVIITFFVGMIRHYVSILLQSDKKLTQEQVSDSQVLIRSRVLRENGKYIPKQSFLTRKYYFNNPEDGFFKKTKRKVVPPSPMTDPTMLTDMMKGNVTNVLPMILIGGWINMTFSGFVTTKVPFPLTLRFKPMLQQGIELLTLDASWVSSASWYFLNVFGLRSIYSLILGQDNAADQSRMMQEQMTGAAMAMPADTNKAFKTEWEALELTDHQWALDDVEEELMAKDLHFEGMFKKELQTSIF
UniProt Q92556, whole entry, looked up: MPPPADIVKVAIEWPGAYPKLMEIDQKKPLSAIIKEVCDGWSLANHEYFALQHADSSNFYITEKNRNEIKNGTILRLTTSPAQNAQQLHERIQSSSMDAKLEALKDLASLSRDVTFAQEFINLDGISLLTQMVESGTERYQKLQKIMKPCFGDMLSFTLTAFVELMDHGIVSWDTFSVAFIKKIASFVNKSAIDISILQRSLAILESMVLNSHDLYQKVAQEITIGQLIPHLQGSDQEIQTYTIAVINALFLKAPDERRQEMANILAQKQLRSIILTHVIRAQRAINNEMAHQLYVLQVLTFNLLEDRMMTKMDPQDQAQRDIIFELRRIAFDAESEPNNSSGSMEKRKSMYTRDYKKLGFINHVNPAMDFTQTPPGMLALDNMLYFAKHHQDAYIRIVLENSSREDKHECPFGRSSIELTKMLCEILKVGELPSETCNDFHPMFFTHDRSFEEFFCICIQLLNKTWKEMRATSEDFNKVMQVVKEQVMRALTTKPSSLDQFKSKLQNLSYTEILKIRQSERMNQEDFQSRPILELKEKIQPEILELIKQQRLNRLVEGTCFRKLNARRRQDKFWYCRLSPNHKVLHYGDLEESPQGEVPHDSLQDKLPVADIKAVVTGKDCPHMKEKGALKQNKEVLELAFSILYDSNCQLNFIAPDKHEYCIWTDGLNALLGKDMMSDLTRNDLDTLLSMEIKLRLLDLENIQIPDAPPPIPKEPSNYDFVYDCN
UniProt P55884, whole entry, looked up: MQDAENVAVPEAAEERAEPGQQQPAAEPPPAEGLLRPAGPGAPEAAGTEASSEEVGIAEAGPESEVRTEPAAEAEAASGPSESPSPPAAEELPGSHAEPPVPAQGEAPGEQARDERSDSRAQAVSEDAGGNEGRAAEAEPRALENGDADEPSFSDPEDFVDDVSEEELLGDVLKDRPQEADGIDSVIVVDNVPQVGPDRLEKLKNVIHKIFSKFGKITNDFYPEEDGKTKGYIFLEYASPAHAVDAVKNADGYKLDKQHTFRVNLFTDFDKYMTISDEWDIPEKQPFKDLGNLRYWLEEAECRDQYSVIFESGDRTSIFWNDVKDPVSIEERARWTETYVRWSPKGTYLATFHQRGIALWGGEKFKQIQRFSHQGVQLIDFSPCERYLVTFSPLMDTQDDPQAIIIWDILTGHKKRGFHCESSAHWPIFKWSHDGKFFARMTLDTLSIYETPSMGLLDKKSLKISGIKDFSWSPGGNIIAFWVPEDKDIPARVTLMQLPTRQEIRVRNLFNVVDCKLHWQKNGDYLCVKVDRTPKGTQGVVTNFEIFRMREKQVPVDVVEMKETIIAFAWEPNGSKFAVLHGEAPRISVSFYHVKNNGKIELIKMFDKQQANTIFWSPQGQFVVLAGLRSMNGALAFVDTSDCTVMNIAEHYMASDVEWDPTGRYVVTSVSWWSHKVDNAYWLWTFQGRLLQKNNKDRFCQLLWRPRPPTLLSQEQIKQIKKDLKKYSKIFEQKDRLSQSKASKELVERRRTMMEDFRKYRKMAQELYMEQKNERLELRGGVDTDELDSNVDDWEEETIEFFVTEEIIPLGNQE
UniProt Q8IV48: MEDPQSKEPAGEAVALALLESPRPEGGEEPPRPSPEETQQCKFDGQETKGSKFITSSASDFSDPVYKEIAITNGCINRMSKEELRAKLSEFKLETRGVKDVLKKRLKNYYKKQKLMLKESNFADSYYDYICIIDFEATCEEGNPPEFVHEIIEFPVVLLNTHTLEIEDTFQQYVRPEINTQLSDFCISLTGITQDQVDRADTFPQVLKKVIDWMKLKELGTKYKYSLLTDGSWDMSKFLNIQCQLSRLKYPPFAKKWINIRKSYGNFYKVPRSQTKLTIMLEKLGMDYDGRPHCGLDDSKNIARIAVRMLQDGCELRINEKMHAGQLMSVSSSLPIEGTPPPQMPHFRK
UniProt Q9BV81: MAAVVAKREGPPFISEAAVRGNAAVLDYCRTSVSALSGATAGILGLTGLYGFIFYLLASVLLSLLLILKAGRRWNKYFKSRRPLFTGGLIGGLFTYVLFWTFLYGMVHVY
UniProt P41091, whole entry, looked up: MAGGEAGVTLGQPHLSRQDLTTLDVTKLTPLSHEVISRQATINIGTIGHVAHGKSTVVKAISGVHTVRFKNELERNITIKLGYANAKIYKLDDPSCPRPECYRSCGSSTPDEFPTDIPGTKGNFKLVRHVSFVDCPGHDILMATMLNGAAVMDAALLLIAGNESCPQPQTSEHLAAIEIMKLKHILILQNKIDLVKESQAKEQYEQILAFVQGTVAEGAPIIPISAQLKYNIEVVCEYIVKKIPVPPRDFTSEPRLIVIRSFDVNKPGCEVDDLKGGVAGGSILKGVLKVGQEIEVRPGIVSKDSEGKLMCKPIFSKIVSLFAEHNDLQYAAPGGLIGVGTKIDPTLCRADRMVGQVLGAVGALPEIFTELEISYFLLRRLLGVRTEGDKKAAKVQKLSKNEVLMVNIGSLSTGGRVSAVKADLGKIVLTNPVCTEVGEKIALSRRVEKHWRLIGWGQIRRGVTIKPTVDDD
UniProt P84090, whole entry, looked up: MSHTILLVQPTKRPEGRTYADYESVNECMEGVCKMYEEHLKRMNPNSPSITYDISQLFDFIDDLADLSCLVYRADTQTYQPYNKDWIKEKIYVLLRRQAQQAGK
UniProt P19447: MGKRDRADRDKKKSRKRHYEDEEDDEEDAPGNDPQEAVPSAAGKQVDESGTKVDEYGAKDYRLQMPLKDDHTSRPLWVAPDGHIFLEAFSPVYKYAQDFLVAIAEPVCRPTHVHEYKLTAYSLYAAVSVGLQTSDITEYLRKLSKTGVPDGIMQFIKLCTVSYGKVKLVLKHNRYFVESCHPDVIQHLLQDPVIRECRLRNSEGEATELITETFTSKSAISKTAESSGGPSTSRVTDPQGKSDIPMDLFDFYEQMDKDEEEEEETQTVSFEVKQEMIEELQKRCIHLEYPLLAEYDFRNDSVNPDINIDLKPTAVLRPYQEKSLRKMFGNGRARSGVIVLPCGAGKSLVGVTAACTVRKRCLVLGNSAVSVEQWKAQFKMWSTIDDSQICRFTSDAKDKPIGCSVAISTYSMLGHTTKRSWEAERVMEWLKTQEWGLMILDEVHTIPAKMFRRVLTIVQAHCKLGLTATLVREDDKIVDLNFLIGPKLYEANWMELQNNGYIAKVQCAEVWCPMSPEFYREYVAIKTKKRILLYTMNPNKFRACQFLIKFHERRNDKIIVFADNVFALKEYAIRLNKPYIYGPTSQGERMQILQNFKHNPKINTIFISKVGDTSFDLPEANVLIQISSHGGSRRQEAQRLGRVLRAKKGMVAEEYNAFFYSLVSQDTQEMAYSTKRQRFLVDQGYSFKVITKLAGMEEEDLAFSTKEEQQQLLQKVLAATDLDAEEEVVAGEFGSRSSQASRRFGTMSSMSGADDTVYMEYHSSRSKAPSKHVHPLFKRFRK
UniProt O43768: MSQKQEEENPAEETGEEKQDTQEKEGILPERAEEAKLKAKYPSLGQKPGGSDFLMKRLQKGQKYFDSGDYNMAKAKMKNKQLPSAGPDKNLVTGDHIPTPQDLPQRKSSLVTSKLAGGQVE
UniProt P54852: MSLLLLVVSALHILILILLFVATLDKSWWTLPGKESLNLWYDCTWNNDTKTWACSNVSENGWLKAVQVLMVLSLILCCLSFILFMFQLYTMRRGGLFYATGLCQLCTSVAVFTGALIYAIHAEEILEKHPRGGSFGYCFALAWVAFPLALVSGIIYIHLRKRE
UniProt P06730, whole entry, looked up: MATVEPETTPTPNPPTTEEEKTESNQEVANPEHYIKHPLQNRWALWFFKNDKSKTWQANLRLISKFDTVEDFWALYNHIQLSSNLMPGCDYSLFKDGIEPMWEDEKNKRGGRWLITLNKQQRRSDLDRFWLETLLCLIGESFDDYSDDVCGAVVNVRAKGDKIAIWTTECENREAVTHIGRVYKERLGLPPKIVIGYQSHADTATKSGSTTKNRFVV
UniProt O75356: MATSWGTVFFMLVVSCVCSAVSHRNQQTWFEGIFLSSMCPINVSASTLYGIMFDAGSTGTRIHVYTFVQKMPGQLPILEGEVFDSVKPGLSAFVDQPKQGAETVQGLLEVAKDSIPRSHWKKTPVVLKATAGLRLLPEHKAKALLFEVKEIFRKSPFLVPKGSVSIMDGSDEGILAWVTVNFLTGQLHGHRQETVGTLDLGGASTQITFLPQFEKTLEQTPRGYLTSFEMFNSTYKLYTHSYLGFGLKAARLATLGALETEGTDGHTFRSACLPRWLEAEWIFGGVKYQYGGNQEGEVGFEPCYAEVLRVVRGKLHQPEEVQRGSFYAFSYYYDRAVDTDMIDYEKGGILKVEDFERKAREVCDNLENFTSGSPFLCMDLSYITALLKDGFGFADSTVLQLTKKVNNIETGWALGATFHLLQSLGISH
UniProt Q9UI10, whole entry, looked up: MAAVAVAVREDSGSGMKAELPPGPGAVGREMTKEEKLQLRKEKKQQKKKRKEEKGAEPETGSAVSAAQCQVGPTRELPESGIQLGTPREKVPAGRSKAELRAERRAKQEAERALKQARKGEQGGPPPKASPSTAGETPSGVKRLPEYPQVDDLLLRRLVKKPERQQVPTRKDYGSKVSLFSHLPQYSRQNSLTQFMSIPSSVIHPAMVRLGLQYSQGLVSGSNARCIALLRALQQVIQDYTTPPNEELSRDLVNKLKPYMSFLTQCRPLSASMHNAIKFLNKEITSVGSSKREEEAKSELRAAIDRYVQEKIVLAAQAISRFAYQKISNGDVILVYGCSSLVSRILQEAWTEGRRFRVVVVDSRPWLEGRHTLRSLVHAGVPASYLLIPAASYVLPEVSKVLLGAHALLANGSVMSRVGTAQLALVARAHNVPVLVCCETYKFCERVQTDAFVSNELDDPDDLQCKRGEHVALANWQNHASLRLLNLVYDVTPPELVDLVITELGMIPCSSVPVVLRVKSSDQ
UniProt O14638, whole entry, looked up: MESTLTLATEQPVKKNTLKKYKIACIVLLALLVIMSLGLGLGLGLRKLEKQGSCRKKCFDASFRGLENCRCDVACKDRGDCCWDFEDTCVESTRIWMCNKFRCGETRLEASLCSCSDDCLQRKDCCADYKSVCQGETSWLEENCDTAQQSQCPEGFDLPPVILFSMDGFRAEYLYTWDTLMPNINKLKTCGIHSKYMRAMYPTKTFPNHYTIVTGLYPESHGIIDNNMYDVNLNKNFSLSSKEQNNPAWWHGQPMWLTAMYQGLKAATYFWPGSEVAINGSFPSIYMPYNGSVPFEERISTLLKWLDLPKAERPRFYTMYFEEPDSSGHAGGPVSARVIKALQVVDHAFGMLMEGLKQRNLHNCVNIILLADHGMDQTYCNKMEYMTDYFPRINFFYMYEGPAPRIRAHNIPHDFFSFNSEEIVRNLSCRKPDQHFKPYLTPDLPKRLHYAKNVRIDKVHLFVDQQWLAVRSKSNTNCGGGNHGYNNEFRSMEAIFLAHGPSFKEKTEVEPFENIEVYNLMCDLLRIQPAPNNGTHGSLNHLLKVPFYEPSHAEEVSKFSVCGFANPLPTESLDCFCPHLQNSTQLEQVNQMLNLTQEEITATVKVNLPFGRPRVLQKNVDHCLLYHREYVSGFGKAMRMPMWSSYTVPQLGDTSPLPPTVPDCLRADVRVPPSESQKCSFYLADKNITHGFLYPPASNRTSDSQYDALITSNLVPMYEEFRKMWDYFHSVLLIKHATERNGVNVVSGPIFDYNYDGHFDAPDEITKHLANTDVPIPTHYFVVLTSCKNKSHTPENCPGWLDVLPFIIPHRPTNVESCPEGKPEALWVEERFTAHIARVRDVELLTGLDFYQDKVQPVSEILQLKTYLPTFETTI
UniProt Q9Y6I3: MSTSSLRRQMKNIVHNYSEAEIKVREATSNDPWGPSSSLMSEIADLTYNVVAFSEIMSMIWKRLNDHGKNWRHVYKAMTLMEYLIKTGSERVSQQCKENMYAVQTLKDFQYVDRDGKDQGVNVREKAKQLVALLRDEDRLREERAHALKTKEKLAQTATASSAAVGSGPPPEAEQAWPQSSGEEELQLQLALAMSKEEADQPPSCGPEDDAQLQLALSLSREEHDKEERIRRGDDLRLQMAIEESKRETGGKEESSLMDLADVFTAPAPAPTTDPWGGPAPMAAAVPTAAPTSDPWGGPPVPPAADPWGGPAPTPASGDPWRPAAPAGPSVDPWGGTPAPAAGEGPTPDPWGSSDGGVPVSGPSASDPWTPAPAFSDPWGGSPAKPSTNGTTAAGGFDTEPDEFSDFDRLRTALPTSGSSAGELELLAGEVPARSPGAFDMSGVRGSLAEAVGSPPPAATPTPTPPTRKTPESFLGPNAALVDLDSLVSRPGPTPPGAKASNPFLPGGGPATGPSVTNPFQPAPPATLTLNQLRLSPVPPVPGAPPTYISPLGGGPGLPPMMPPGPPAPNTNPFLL

log2 fold change, inactive:
EIF3G (UniProt K7ER90) 0.009
EP300 (UniProt Q09472) 0.006
ERGIC2 (UniProt Q96RQ1) 0.095
ERAL1 (UniProt O75616) -0.015
EIF3F (UniProt O00303) -0.022
EMC3 (UniProt Q9P0I2) 0.014
ELMO1 (UniProt Q92556) 0.05
ERC1 (UniProt X6RLX0) 0.026
EIF3B isoform 2 (UniProt P55884) -0.03
ERI1 (UniProt Q8IV48) -0.021
ENY2 (UniProt Q9NPA8) -0.084
EMC7 (UniProt Q9NPA0) -0.008
EMC6 (UniProt Q9BV81) 0.036
EIF2D (UniProt P41214) -0.024
EIF2S3 (UniProt P41091) 0.03
ELF2 (UniProt Q15723) -0.062
ERH (UniProt P84090) 0.023
EPHX2 (UniProt P34913) 0.123
EPS15L1 isoform 2 (UniProt Q9UBC2) -0.004
ERCC4 (UniProt Q92889) -0.029
ERCC3 (UniProt P19447) -0.013
EPPK1 (UniProt P58107) -0.109
EIF6 (UniProt P56537) 0.019
ENSA isoform 3 (UniProt O43768) -0.027
EMP3 (UniProt P54852) 0.056
EIF4E isoform 2 (UniProt P06730) -0.092
ENTPD5 (UniProt O75356) 0.026
EPRS (UniProt P07814) -0.015
EIF2B4 isoform 2 (UniProt Q9UI10) 0.02
EMC4 (UniProt Q5J8M3) -0.017
ELP2 isoform 6 (UniProt Q6IA86) -0.064
ENGASE (UniProt Q8NFI3) 0.02
ENPP3 (UniProt O14638) 0.001
ENDOG (UniProt Q14249) 0.032
EPN1 (UniProt Q9Y6I3) 0.029
EMD (UniProt P50402) 0.028

What follows are targets tested with COC(=O)N[C@@H](C)CNc1nccc(-c2cn(C(C)C)nc2-c2cc(Cl)cc(NS(C)(=O)=O)c2F)n1 [encorafenib] in the same assay as above.
In short: as §1

log2 fold change, inactive:
EIF3G (UniProt K7ER90) -0.013
EP300 (UniProt Q09472) 0.031
ERGIC2 (UniProt Q96RQ1) 0.057
ERAL1 (UniProt O75616) -0.018
EIF3F (UniProt O00303) 0.017
EMC3 (UniProt Q9P0I2) 0.018
ELMO1 (UniProt Q92556) 0.012
ERC1 (UniProt X6RLX0) 0.013
EIF3B isoform 2 (UniProt P55884) -0.002
ERI1 (UniProt Q8IV48) 0.025
ENY2 (UniProt Q9NPA8) 0.004
EMC7 (UniProt Q9NPA0) 0.026
EMC6 (UniProt Q9BV81) 0.039
EIF2D (UniProt P41214) -0.014
EIF2S3 (UniProt P41091) -0.013
ELF2 (UniProt Q15723) 0.028
ERH (UniProt P84090) -0.021
EPHX2 (UniProt P34913) -0.02
EPS15L1 isoform 2 (UniProt Q9UBC2) -0.006
ERCC4 (UniProt Q92889) -0.065
ERCC3 (UniProt P19447) 0.011
EPPK1 (UniProt P58107) 0.029
EIF6 (UniProt P56537) -0.022
ENSA isoform 3 (UniProt O43768) -0.024
EMP3 (UniProt P54852) -0.016
EIF4E isoform 2 (UniProt P06730) -0.005
ENTPD5 (UniProt O75356) 0.155
EPRS (UniProt P07814) -0.004
EIF2B4 isoform 2 (UniProt Q9UI10) 0.018
EMC4 (UniProt Q5J8M3) 0.054
ELP2 isoform 6 (UniProt Q6IA86) 0.037
ENGASE (UniProt Q8NFI3) 0.018
ENPP3 (UniProt O14638) -0.001
ENDOG (UniProt Q14249) 0.003
EPN1 (UniProt Q9Y6I3) -0.024
EMD (UniProt P50402) 0.039
